{"source": "PubChem BioAssay AID504764 (Drosophila RNAi Screening Center, 2011)", "assay": "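Genome-wide screen for regulators of Notch-driven gene expression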 (primary screen)", "system": "Drosophila Kc167 cells", "knock-down reagent": "long dsRNA against Drosophila genes", "duration": "about 5 days (4 days dsRNA, then 24 h after transfection)", "conditions": "transfection of constitutively active membrane-tethered Notch lacking the extracellular domain, read 24 h later", "measured": "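Firefly luciferase from an E(spl)m3 reporter with active Notch, plus control-promoter and uninduced reporter wells for normalisation; unnormalised counts, duplicate wells a and b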", "scale": "induced reporter light, run 1, well a and induced reporter light, run 1, well b: higher = more light from the Notch target reporter with active Notch; control promoter light, run 1, well a and control promoter light, run 1, well b: higher = more light from the viral control promoter (cell number, transfection, viability); uninduced reporter light, run 1, well a: higher = more light from the Notch target reporter without active Notch", "rule for the call": "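Hit if the duplicate-averaged log2 ratio of induced to control-promoter light gives a plate-wise z beyond ±2, or induced to uninduced beyond ±1.8; weak-control or discordant-duplicate wells dropped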", "calls": "active = modifier hit (raised or lowered Notch signal); inactive = not a hit", "note": "In all, the deposit lists about 22,000 reagents; below is a random part of those that have a named target and a result. Of all reagents, 403 (1.9%) are marked active. 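Unnormalised raw counts per well; ratio z-scores behind the hit calls and whether each hit raises or lowers signal are not deposited.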 A number with no mark means an inactive call. Names joined by + are all predicted targets of the reagent. Not stated in the record: the amount of reagent."}
{"predicted target":"Usp20-33","dsRNA":"DRSC07196","induced reporter light, run 1, well a":1.37e5,"induced reporter light, run 1, well b":1.74e5,"control promoter light, run 1, well a":1.45e5,"control promoter light, run 1, well b":1.48e5,"uninduced reporter light, run 1, well a":14450}
{"predicted target":"Dscam4","dsRNA":"DRSC08911","induced reporter light, run 1, well a":1.51e5,"induced reporter light, run 1, well b":1.30e5,"control promoter light, run 1, well a":1.53e5,"control promoter light, run 1, well b":1.61e5,"uninduced reporter light, run 1, well a":9905}
{"predicted target":"Dscam4","dsRNA":"DRSC08913","induced reporter light, run 1, well a":1.88e5,"induced reporter light, run 1, well b":1.96e5,"control promoter light, run 1, well a":2.00e5,"control promoter light, run 1, well b":2.22e5,"uninduced reporter light, run 1, well a":13700}
{"predicted target":"Dscam4","dsRNA":"DRSC10031","induced reporter light, run 1, well a":1.53e5,"induced reporter light, run 1, well b":1.23e5,"control promoter light, run 1, well a":1.76e5,"control promoter light, run 1, well b":1.21e5,"uninduced reporter light, run 1, well a":6010}
{"predicted target":"Dscam4","dsRNA":"DRSC10329","induced reporter light, run 1, well a":1.53e5,"induced reporter light, run 1, well b":1.68e5,"control promoter light, run 1, well a":2.51e5,"control promoter light, run 1, well b":1.53e5,"uninduced reporter light, run 1, well a":5715}
{"predicted target":"Dscam4","dsRNA":"DRSC10765","induced reporter light, run 1, well a":1.89e5,"induced reporter light, run 1, well b":2.04e5,"control promoter light, run 1, well a":2.65e5,"control promoter light, run 1, well b":1.60e5,"uninduced reporter light, run 1, well a":9765}
{"predicted target":"hb","dsRNA":"DRSC16963","induced reporter light, run 1, well a":1.16e5,"induced reporter light, run 1, well b":1.09e5,"control promoter light, run 1, well a":45700,"control promoter light, run 1, well b":48315,"uninduced reporter light, run 1, well a":11778}
{"predicted target":"CG6893","dsRNA":"DRSC10742","induced reporter light, run 1, well a":2.50e5,"induced reporter light, run 1, well b":2.31e5,"control promoter light, run 1, well a":2.80e5,"control promoter light, run 1, well b":2.95e5,"uninduced reporter light, run 1, well a":13405}
{"predicted target":"Dnah3","dsRNA":"DRSC08130","induced reporter light, run 1, well a":1.99e5,"induced reporter light, run 1, well b":2.44e5,"control promoter light, run 1, well a":2.05e5,"control promoter light, run 1, well b":1.65e5,"uninduced reporter light, run 1, well a":15155}
{"predicted target":"Dnah3","dsRNA":"DRSC08513","induced reporter light, run 1, well a":1.81e5,"induced reporter light, run 1, well b":1.34e5,"control promoter light, run 1, well a":1.31e5,"control promoter light, run 1, well b":1.64e5,"uninduced reporter light, run 1, well a":7000}
{"predicted target":"Shawn + Tyler","dsRNA":"DRSC19564","induced reporter light, run 1, well a":1.22e5,"induced reporter light, run 1, well b":1.10e5,"control promoter light, run 1, well a":1.24e5,"control promoter light, run 1, well b":65985,"uninduced reporter light, run 1, well a":9815}
{"predicted target":"Shawn + Tyler","dsRNA":"DRSC19565","induced reporter light, run 1, well a":72145,"induced reporter light, run 1, well b":74580,"control promoter light, run 1, well a":90595,"control promoter light, run 1, well b":94735,"uninduced reporter light, run 1, well a":9780}

A portion from the list above, for reference:
{"predicted target":"Dnah3","dsRNA":"DRSC08130","induced reporter light, run 1, well a":1.99e5,"induced reporter light, run 1, well b":2.44e5,"control promoter light, run 1, well a":2.05e5,"control promoter light, run 1, well b":1.65e5,"uninduced reporter light, run 1, well a":15155}
{"predicted target":"Dnah3","dsRNA":"DRSC08513","induced reporter light, run 1, well a":1.81e5,"induced reporter light, run 1, well b":1.34e5,"control promoter light, run 1, well a":1.31e5,"control promoter light, run 1, well b":1.64e5,"uninduced reporter light, run 1, well a":7000}
